PubChem BioAssay AID602196 | INSERM – 2012
Shown is a random part of about 23,000 reagents tested. 455 of them (2%) were called active. 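Active includes both protection and sensitisation; some change values fall well beyond the stated -50 to +50 range.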 Further read-outs or replicates are left out here. Not given: the amount of reagent.

Test: 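Knock-downs that protect lung cancer cells from cisplatin or sensitise them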
Cells: human A549 lung cancer cells
Knock-down reagent: siRNA pair against human genes
Timing: 48 h transfection before cisplatin; time from cisplatin to read-out not stated
Treatment: cisplatin at a dose killing half of control-siRNA cells; exact dose and duration not given
Measured: 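Shift in cisplatin death relative to control siRNA, from -50 (all cells die) to +50 (no cells die); siRNAs harmful on their own scored 0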
Reading the numbers: two-siRNA summed score (-2 to +2): higher = both siRNAs protect from cisplatin killing; -2 means both sensitise; mean protection from cisplatin (shift in death) and protection from cisplatin (shift in death), siRNA C: higher = protection from cisplatin killing
Active means: 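siRNAs harmful alone (LDH or WST-1) get 0; others get +1 for less and -1 for more cisplatin killing; genes are active when the two siRNAs give the same sign, summing to ±2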
Calls: active = both siRNAs shift cisplatin killing the same way; inactive = no consistent shift, or siRNA harmful alone

gene,two-siRNA summed score (-2 to +2),mean protection from cisplatin (shift in death) (%),"protection from cisplatin (shift in death), siRNA C (%)",Outcome
FBXL5,-1,-23.6,-30.9,inactive
EDDM3A,0,-3.4,3.8,inactive
LOC387763,1,12.4,4.7,inactive
PRELID3A,0,8.9,10,inactive
DEFB105A,0,3.7,5,inactive
KANK1,-1,-9.6,-14.8,inactive
SRF,0,-11.1,-34.7,inactive
CCDC26,1,7.9,16.3,inactive
SULT1C2,0,2.6,1.5,inactive
PLCD1,-1,-6.6,-11.3,inactive
LOC441432,1,7.2,16.2,inactive
RNASEH2B,0,-4,-3.7,inactive
MYO15A,0,1.5,-0.7,inactive
CBY1,1,12.5,17.7,inactive
PLD3,-1,-21.1,-33.5,inactive
RBBP8,1,9.8,-12.1,inactive
LOC439979,0,1.9,5.1,inactive
OR51I2,1,25.3,35.1,inactive
CDX2,0,2.8,-0.1,inactive
WRAP53,-1,-3.2,-14.8,inactive
LOC105378085,0,9.1,4.2,inactive
MGC34774,0,5.3,6.9,inactive
RAB3B,0,2.1,6.2,inactive
AQR,0,23.5,22.7,inactive
ABHD14B,0,-2.7,8.7,inactive

Targets listed so far whose target name starts with L or l:
gene,two-siRNA summed score (-2 to +2),mean protection from cisplatin (shift in death) (%),"protection from cisplatin (shift in death), siRNA C (%)",Outcome
LOC387763,1,12.4,4.7,inactive
LOC441432,1,7.2,16.2,inactive
LOC439979,0,1.9,5.1,inactive
LOC105378085,0,9.1,4.2,inactive

Additional records:
gene,two-siRNA summed score (-2 to +2),mean protection from cisplatin (shift in death) (%),"protection from cisplatin (shift in death), siRNA C (%)",Outcome
PIGH,0,4.1,5.4,inactive
LOC439964,0,14.5,3,inactive
LOC340578,-1,-12.1,-14.6,inactive
LOC442675,1,12.7,5.2,inactive
CCNI,0,8.4,2.7,inactive
RHOT1,1,12.1,5.6,inactive
SCRG1,1,10.7,16.1,inactive
CTDP1,0,2.2,6.8,inactive
LOC388755,0,9.4,5,inactive
LOC389950,0,3.5,-0.7,inactive
LOC442780,0,9.5,9.9,inactive
LOC390842,0,14.3,23.5,inactive
TEX56P,2,18.6,15.1,active
GNGT2,0,3.5,19.7,inactive
LOC390258,0,25.3,10.1,inactive
GPR135,-1,1,-9.7,inactive
LOC440237,0,4.9,3,inactive
NCOA1,0,-17.2,-4.5,inactive
VNN3P,0,9,17.1,inactive
ACSM1,0,-1.1,0.6,inactive
RRP8,0,5,7.8,inactive
LOC440350,0,9.3,17.1,inactive
NUBP2,-1,1.5,-9.3,inactive
LOC441742,-1,-2.5,-9.6,inactive
KCNA5,-1,-13.4,-30.8,inactive
LENG9,0,-4.9,-8.6,inactive
LOC285694,0,0.4,1.3,inactive
NUP88,1,16.2,16.4,inactive
CCDC27,0,-5.7,-17.4,inactive
VCPKMT,0,-10.2,-16.5,inactive
POSTN,0,-17.4,-20,inactive
VNN2,0,-1.3,-3.5,inactive
